Results are given in words; binding and its absence hold for the method and conditions named. Some binding calls cover weakened binding; strength is not graded here.

Amino acid sequences for entries named in this document (tags omitted). A change or cut given only in a name is not applied to a line headed by its entry.
UniProt Q5ZKX6: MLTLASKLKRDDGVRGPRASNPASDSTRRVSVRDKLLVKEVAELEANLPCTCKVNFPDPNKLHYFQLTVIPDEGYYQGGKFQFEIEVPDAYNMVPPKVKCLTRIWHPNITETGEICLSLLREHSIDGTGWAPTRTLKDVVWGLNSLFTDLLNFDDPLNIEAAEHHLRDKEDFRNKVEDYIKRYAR

For the assay, the target named is Eimeria acervulina microneme protein 3 (Eimeria acervulina). Description: two-hybrid; DUALhunter (split-ubiquitin) screen in yeast NMY51: bait pDHB1-EaMIC3 against a chicken duodenal epithelial cell cDNA library in pPR3-N; positive prey plasmids retransformed with the bait to eliminate false positives.

On to “chicken (Gallus gallus) ubiquitin conjugating enzyme E2F (from UniProt Q5ZKX6 1-185)”, for which the binding result is “binds”.

The record behind these values is PMC7083106.
